These results are taken from publication doi:10.1101/2021.08.12.456108.

The chains behind the UniProt entries cited, without tags or fusion partners. Where a name states a change or a piece, a line headed by the entry shows the natural chain unless it says otherwise.
UniProt Q93009: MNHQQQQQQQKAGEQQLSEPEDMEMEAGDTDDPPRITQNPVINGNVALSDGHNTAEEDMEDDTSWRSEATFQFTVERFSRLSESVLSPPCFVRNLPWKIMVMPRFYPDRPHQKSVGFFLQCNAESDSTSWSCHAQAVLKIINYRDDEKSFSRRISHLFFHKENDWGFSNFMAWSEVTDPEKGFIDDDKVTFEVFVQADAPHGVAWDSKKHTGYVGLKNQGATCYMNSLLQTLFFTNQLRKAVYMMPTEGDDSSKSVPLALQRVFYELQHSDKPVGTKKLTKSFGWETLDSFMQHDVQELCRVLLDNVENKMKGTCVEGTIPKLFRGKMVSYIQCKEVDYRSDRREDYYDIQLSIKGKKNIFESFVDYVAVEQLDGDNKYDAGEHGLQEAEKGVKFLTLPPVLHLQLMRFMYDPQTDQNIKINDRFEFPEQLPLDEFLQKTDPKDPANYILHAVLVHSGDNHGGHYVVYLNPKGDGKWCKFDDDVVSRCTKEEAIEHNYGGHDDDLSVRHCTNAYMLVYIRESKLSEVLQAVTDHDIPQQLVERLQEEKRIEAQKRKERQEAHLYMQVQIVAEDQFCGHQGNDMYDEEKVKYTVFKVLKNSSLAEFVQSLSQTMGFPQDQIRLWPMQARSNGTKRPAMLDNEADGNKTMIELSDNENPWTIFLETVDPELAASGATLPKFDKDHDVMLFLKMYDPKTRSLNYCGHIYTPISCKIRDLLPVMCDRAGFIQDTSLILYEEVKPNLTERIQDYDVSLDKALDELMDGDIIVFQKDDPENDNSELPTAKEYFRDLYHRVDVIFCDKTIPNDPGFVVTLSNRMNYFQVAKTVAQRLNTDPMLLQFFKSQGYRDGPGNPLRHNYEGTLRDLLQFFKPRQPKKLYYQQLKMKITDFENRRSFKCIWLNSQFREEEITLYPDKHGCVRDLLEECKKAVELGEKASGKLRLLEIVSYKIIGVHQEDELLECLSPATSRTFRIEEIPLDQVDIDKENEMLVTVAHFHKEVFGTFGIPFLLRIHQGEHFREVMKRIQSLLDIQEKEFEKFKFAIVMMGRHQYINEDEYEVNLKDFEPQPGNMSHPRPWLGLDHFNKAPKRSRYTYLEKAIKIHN
UniProt P98170: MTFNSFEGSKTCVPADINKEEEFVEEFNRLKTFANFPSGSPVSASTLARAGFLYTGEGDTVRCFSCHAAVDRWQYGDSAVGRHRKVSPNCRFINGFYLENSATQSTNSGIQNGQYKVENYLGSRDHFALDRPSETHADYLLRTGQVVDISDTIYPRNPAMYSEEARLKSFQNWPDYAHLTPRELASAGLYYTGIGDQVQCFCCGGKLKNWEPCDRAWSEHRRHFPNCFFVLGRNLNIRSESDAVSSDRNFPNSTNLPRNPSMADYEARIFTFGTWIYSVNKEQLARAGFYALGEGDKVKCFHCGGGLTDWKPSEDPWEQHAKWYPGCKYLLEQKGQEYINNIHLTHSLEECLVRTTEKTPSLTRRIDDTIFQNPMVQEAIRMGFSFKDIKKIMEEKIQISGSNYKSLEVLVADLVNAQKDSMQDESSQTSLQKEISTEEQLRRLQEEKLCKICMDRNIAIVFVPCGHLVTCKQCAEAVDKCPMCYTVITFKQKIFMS

In one experiment the target is FLAG-USP7 (UniProt Q93009). Description: co-IP.
The target of a further experiment is GST-XIAP (UniProt P98170). The experiment in a line: pull-down.
In experiment [1] the target is endogenous XIAP (X-linked IAP) of HEK cells (human (endogenous in HEK)) (UniProt P98170). Description: co-IP.
The target of experiment [2] is endogenous USP7 of HEK cells (human (endogenous in HEK)) (UniProt Q93009). The experiment in a line: co-IP.
A further experiment addresses His-XIAP (UniProt P98170). The experiment in a line: pull-down.

These are yes or no findings as the source states them, for the method shown. Binding seen in cells or lysates may run through a third protein. Some results given as binding are weak or reduced against the parent protein; the word gives no strength.

On to GFP-XIAP (from UniProt P98170 1-497), for which, in the experiment with FLAG-USP7, the binding result is “binds”.

Regarding “Myc-His-USP7 (from UniProt Q93009 1-1102) (enzyme)”, in the experiment with GST-XIAP, the binding result is on record as “binds”. For the substance “endogenous USP7 of HEK cells (from UniProt Q93009 1-1102) (enzyme)”, the binding entry (in experiment [1]; with GST-XIAP) was “binds” throughout. “endogenous XIAP (X-linked IAP) of HEK cells (from UniProt P98170 1-497)”: the binding result in experiment [2] is listed as “binds”. As to “full-length USP7 (transfected in HEK cells beside the USP7 deletion mutants) (from UniProt Q93009 1-1102) (enzyme)”, in the experiment with His-XIAP, the binding result was “binds”.
